For this assay, the target named is T1, GST fusion of MEG-1 (C. elegans) (UniProt Q21126).
T1 sequence: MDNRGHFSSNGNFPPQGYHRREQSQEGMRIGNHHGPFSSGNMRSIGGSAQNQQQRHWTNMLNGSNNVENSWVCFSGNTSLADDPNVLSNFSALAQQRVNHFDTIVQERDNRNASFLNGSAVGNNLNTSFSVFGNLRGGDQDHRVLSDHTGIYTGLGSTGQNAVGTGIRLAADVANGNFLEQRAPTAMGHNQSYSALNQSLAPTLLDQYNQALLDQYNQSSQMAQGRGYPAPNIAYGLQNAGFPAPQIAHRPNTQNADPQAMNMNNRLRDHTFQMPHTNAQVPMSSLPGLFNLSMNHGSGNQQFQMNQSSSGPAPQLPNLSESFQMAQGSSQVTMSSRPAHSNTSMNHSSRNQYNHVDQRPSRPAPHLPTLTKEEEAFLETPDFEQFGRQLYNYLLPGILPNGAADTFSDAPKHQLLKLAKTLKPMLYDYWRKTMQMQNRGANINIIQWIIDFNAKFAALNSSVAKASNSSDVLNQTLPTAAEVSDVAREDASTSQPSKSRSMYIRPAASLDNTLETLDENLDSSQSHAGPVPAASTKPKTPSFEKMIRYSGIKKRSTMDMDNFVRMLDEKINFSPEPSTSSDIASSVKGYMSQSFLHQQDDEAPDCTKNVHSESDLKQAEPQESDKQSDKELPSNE
Kind of assay: pull-down; GST fusions bound to GST beads and washed; incubated with MBP fusions (E. coli lysates) at 4°C for 1 hr in 50 mM Hepes pH 7.4, 1 mM EGTA, 1 mM MgCl2, 500 mM KCl, 10% glycerol, 0.05% NP-40; eluted with 10 mM reduced glutathione; Western; only the target purified.

No constants are given. Whether binding was seen depends on the method and setting. In cells and extracts the contact can be indirect. Some entries that bind do so weakly or less than the wild type. Tags and fused reporters may be left off the sequences shown.

B1: MBP fusion of PGL-1 (protein, UniProt Q9TZQ3 1-730)
chain: MEANKREIVDFGGLRSYFFPNLAHYITKNDEELFNNTSQANKLAAFVLGASKDAPGDEDILEMILPNDANAAVIAAGMDVCLLLGDKFRPKFDAAAEKLSGLGHAHDLVSVIDDDKKLGMLARKAKLKKTEDAKILQALLKVIAIDDAAEKFVELTELVSQLDLDFDVYVLTKILGLISEETSDEVDIIRDNVVNAFDSCKPLLKQLMLDGPKSEPADPFISLLMDPLEESVGKVVNHIAQLFEEASKNEGDESLVLRSQLGYQLFFLIVRSLADGKREVSKKILSGIPTSVRAEVFPGLQRSVYKSAVFLGNHIIQVLLGSKKSFEDWDVVGVAKDLESAWKRRAIAELIKKFQVSILEQCFDKPVPLIPQSPLNNDAVIDNVNKALQFALWLTEFYGSENETEALGELRFLDSTSKNLLVDSFKKFVQGINSKTHVTRIVESLEKCCLSDTPSGRKSNVQPSTSQQQDSAYTKEEMTTVHNTYSVNTKAQVLNGLSDTNSSGLLVDSKDSLSLQEISCDEVDSSTLLSSSRNIGEGVTVKAVDPVPEKVNDAQQQQTVNEIEMASDANQDTSSSASPEVAPSFSTDGWDSPTKSVALPPGMQQIDEEETTVADKDSTPQPQARAETAWGSGDATPMPLPAPTNQYKVSGFGEAKVAKGFGQFAPTSSAYGGGGGRGGYGGGDRGGRGGYGGDRGGRGGYGGGDRGGRGGYGGDRGRGGYGGRGGRGGF
On to B1, for which the binding entry was “binds”.

B2: MBP fusion of PAA-1, the scaffolding subunit of PP2A (protein, UniProt Q09543 1-590)
chain: MSVVEEATDDALYPIAVLIDELRNEDVTLRLNSIRKLSTIALALGVERTRNELIQFLTDTIYDEDEVLLVLAEQLGNFTPLVGGPDHVHCLLLPLENLATVEETVVRDKAVESLRKIADKHSSASLEEHFVPMLRRLATGDWFTSRTSACGLFSVVYPRVSPAIKSELKSMFRTLCRDDTPMVRRAAAAKLGEFAKVFEKTAVIEGLHSSLTDLHVDEQDSVRLLTVESAIAFGTLLDKANKKKLIEPILIELFDDKSWRVRYMVAEKLIEIQNVLGEDMDTTHLVNMYTNLLKDPEGEVRCAATQRLQEFALNLPEDKRQNIICNSLLNVAKELVTDGNQLVKSELAGVIMGLAPLIGKEQTVSELLPIYMQLLNDQTPEVRLNIISSLDKVNEVIGAAQLSTSLLPAIVGLAEDGKWRVRLAIVQFMPLLASQLGQEFFDEKLLPLCLNWLTDHVFSIREASTLIMKELTQKFGGQWASTNIVPKMQKLQKDTNYLQRMTCLFCLNTLSEAMTQEQILKEIMPIVKDLVEDDVPNVRFNAAKSLKRIGKNLTPSTLTSEVKPLLEKLGKDSDFDVRYFSEEAKNSLGL
Take B2: the binding result is “no binding”.
